PubChem BioAssay AID686938 – Drosophila RNAi Screening Center, 2013
The screen tested about 23,000 reagents; this is an unselected part of those with a known target gene and a result. Over the whole deposit, 75 (0.33%) got an active call. 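Raw plate signals without normalisation; calls rest on plate z-scores that were not deposited; ratio present for only 364 wells.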 The numbers tell different reagents against one gene apart. Not stated in the record: the dose of the treatment.

Assay: 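Looking for CRAC channel components and the factors controlling them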 (primary screen)
Cell system: Drosophila S2R+ cells
Knock-down reagent: long dsRNA against Drosophila genes, about 0.25 µg dsRNA per well, roughly 10,000 cells
Duration: 5 days of knock-down before the calcium assay
Treatment: thapsigargin (SERCA pump blocker) to empty calcium stores; entry signal taken 4 min after adding it
Measurement: 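Duplicate raw fluo-4 intensities per well from a plate reader, at rest and four minutes after thapsigargin emptied calcium stores; entry-to-rest ratio filled for only some wells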
Reading the numbers: calcium entry signal: higher = stronger calcium signal after store depletion; resting calcium signal: higher = higher resting calcium signal
Active means: 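Called when the plate z-score of the entry-to-rest ratio, mean of duplicates, falls below −3; wells with low overall dye signal (Fmax z below −2) or more than five off-targets excluded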
Meaning of the calls: active = strongly reduced calcium entry; inactive = no strong reduction

| Gene | reagent no. | calcium entry signal, replicate 1 (fluorescence units) | calcium entry signal, replicate 2 (fluorescence units) | resting calcium signal, replicate 1 (fluorescence units) | resting calcium signal, replicate 2 (fluorescence units) | call |
| --- | --- | --- | --- | --- | --- | --- |
| borr (borealin-related) | 1 | 2.71e7 | – | 1.95e7 | – | inactive |
| Sf3b2 (Splicing factor 3b subunit 2) | 1 | 1.50e7 | – | 1.25e7 | – | inactive |
| CG3349 | 1 | 4.19e7 | 5.28e7 | 1.87e7 | 2.08e7 | inactive |
| HPS1 (Hermansky-Pudlak Syndrome 1) | 1 | 5.27e7 | 4.28e7 | 2.08e7 | 1.89e7 | inactive |
| CG33796 | 1 | 3.23e7 | 2.33e7 | 1.68e7 | 1.24e7 | inactive |
| CG4950 | 1 | 3.92e7 | 4.64e7 | 1.87e7 | 1.67e7 | inactive |
| CG14395 | 1 | 4.03e7 | 4.03e7 | 1.97e7 | 2.14e7 | inactive |
| CG31562 (retired record) | 1 | 4.11e7 | 4.57e7 | 2.04e7 | 2.10e7 | inactive |
| CG31562 (retired record) | 2 | 4.30e7 | 4.70e7 | 2.21e7 | 2.03e7 | inactive |
| BckdhB (Branched chain keto acid dehydrogenase E1 subunit beta) | 1 | 4.17e7 | 4.70e7 | 2.16e7 | 2.08e7 | inactive |
| Lip4 (Lipase 4) | 1 | 3.44e7 | 5.04e7 | 1.66e7 | 2.01e7 | inactive |
| CG31809 | 1 | 2.33e7 | 4.11e7 | 1.51e7 | 1.78e7 | inactive |
| CG32762 | 1 | 2.62e7 | 3.88e7 | 1.41e7 | 1.95e7 | inactive |
| CG31441 | 1 | 3.17e7 | 2.74e7 | 1.43e7 | 1.37e7 | inactive |
| vib (vibrator) | 1 | 3.36e7 | 2.72e7 | 1.72e7 | 1.32e7 | inactive |
| mRpL46 (mitochondrial ribosomal protein L46) | 1 | 4.53e7 | 3.50e7 | 2.09e7 | 1.57e7 | inactive |
| Alk (Anaplastic lymphoma kinase) | 1 | 4.45e7 | 2.68e7 | 2.09e7 | 1.40e7 | inactive |
| Alk (Anaplastic lymphoma kinase) | 2 | 3.42e7 | 3.47e7 | 2.01e7 | 1.66e7 | inactive |
| Tsp68C (Tetraspanin 68C) | 1 | 2.06e7 | 2.93e7 | 1.09e7 | 1.32e7 | inactive |
| Irc (Immune-regulated catalase) | 1 | 3.47e7 | 2.79e7 | 1.68e7 | 1.30e7 | inactive |
| CG4098 | 1 | 4.04e7 | 5.20e7 | 1.93e7 | 1.89e7 | inactive |
| red (red Malpighian tubules) | 1 | 3.47e7 | 3.71e7 | 1.68e7 | 1.78e7 | inactive |
| red (red Malpighian tubules) | 2 | 4.04e7 | 3.74e7 | 2.00e7 | 1.71e7 | inactive |
| e(y)2 (enhancer of yellow 2) | 1 | 3.09e7 | 4.15e7 | 1.43e7 | 1.91e7 | inactive |

Reprinted from the listing, 2 entries:
| Gene | reagent no. | calcium entry signal, replicate 1 (fluorescence units) | calcium entry signal, replicate 2 (fluorescence units) | resting calcium signal, replicate 1 (fluorescence units) | resting calcium signal, replicate 2 (fluorescence units) | call |
| --- | --- | --- | --- | --- | --- | --- |
| CG31441 | 1 | 3.17e7 | 2.74e7 | 1.43e7 | 1.37e7 | inactive |
| vib (vibrator) | 1 | 3.36e7 | 2.72e7 | 1.72e7 | 1.32e7 | inactive |
